Measurements: PubChem BioAssay AID330 (DTP/NCI, 2004)
The list is a part of this screen's results and no random one: it is rich in T/C values a quarter to a half above the control, in often repeated tests (any T/C) and in doses without a T/C. Further doses and runs are listed elsewhere. T/C gives the treated animals as a percentage of the vehicle group. Some entries give survivors of the animals treated and no T/C: the source files T/C as zero there, which appears to mark a toxic dose or a test without result, not a measured value. Some survivor counts are full or nearly so, which does not show that the dose was tolerated: survival well below the control is almost never listed, so the zero probably covers shortened survival too. Counts of survivors are from the toxicity check (mostly the fifth day) where no day follows; animals may have died later. Schedules are NCI's codes, taken here to give the interval after Q, in days (D) or hours (H), and the number of doses after X. Some doses were run more than once; the results are listed from low to high. Some structures stand for samples that the source files as different forms (salt, stereo form or complex); doses refer to the form tested. For survival time, the PubChem record calls one and a half times the control and up active, and a quarter to a half above the control has no call in these data; cut-offs in other NCI protocols can differ. Some T/C values are followed by the survivors on the day toxicity was checked, most often the fifth; where none is given, no animal had died by that day.

System: P388 leukemia ip, CD2F1 mice, survival T/C
Test: NCI In Vivo Anticancer Drug Screen. Data for tumor model P388 Leukemia (intraperitoneal) in CD2F1 (CDF1) mice
Conditions: T/C endpoint: median survival time, higher T/C = longer survival
[1] = dose: 200.0 mg/kg/injection, schedule: Q01DX005 (ip), vehicle: Klucel (hydroxypropylcellulose) (HPC)
[2] = dose: 200.0 mg/kg/injection, schedule: Q04DX003 (ip), vehicle: saline with Tween-80
[3] = dose: 50.0 mg/kg/injection, schedule: Q01DX009 (ip), vehicle: Klucel (hydroxypropylcellulose) (HPC)
[4] = dose: 200.0 mg/kg/injection, schedule: Q01DX009 (ip), vehicle: Klucel (hydroxypropylcellulose) (HPC)
[5] = dose: 200.0 mg/kg/injection, schedule: Q01DX005 (ip), vehicle: saline with Tween-80
[6] = dose: 50.0 mg/kg/injection, schedule: Q01DX005 (ip), vehicle: Klucel (hydroxypropylcellulose) (HPC)
[7] = dose: 200.0 mg/kg/injection, schedule: Q01DX009 (ip), vehicle: water
[8] = dose: 400.0 mg/kg/injection, schedule: Q01DX009 (ip), vehicle: water
[9] = dose: 100.0 mg/kg/injection, schedule: Q01DX005 (ip), vehicle: Klucel (hydroxypropylcellulose) (HPC)

In the case of `COc1cc2c(c3c1C(=O)c1c(cc4c(c1O)C(OC1OC(C)C(OC)C(C)(OC)C1OC)CC(C)(O)C4)C3=O)OC1OC2(C)C(O)C(N(C)C)C1O` (centres undefined), the T/C (dose: 1.25 mg/kg/injection, schedule: Q01DX009 (ip), vehicle: other) is reported as 132 % of control and the T/C (dose: 2.5 mg/kg/injection, schedule: Q01DX009 (ip), vehicle: other) is reported as 135 % of control.

`N=C(N)c1ccc(NC(=O)c2cc3ccc(C(=N)N)cc3o2)cc1` was tested, and the survivor count (dose: 100.0 mg/kg/injection, schedule: Q04DX003 (ip), vehicle: suspension in saline) was 0 of 6, the survivor count (dose: 200.0 mg/kg/injection, schedule: Q04DX003 (ip), vehicle: suspension in saline) was 0 of 6 and the survivor count (dose: 400.0 mg/kg/injection, schedule: Q04DX003 (ip), vehicle: suspension in saline) was 0 of 6.

With `C=C(C)C(=NC(C)(C)C)Nc1ccc(Cl)cc1` the survivor count [1] was 1 of 5 and the T/C (dose: 200.0 mg/kg/injection, schedule: Q01DX009 (ip), vehicle: saline with Tween-80) was 127 and 134 % of control.

In the case of `O=C(c1ccccc1)C(C(=O)c1ccccc1)C(c1ccccc1)(c1ccccc1)c1ccccc1`, the survivor count (dose: 50.0 mg/kg/injection, schedule: Q04DX003 (ip), vehicle: saline with Tween-80) is reported as 6 of 6 and the survivor count [2] is reported as 6 of 6.

With `O=C1c2ccccc2C(=O)c2c1cccc2N1CCOCC1` the survivor count (dose: 100.0 mg/kg/injection, schedule: Q01DX009 (ip), vehicle: Klucel (hydroxypropylcellulose) (HPC)) was 6 of 6.

With `C/C=C(/C)C(=O)OC/C(=C/C)C(=O)OC1C=CC(C)(C)C(C=O)=C1C` (centres undefined) the survivor count [3] was 6 of 6.

`Cn1ccc(=Nc2ccc(NC(=O)c3ccc(N=c4ccn(C)c5ccc([N+](=O)[O-])cc45)cc3)cc2)cc1` was tested, and the survivor count (dose: 50.0 mg/kg/injection, schedule: Q01DX009 (ip), vehicle: other) was 6 of 6, the survivor count (dose: 100.0 mg/kg/injection, schedule: Q01DX009 (ip), vehicle: other) was 4 of 6 and the survivor count (dose: 200.0 mg/kg/injection, schedule: Q01DX009 (ip), vehicle: other) was 1 of 6. For the same molecule, the survivor count (dose: 400.0 mg/kg/injection, schedule: Q01DX009 (ip), vehicle: other) was 2 of 6.

In the case of `CCN(CC)CCNc1ccc(C)c2sc3cccc(O)c3c(=O)c12`, the T/C [3] is reported as 143 % of control and the survivor count [4] is reported as 6 of 6.

With `O=C(O)c1cccnc1C(=O)Nc1cccc2ccccc12` the survivor count (dose: 120.0 mg/kg/injection, schedule: Q01DX005 (ip), vehicle: saline with Tween-80) was 3 of 6 and 5 of 6.

In the case of `CC1NC(=O)C(C(C)C)NC(=O)C2=CN(Cc3ccccc3)C=CC2NC(=O)C(C)NC(=O)C(C(C)C)NC(=O)C2=CN(Cc3ccccc3)C=CC2NC1=O` (centres undefined), the survivor count (dose: 240.0 mg/kg/injection, schedule: Q01DX005 (ip), vehicle: saline with Tween-80) is reported as 0 of 6.

`CCOc1ccc2c(c1)[n+](=O)c1ccc(Cl)cc1n2[O-]` was tested, and the T/C [5] was 126 % of control, the survivor count [5] was 6 of 6 and the survivor count (dose: 400.0 mg/kg/injection, schedule: Q01DX005 (ip), vehicle: saline with Tween-80) was 2 of 6 and 4 of 6.

For `NNC(=O)c1ccccc1`, the survivor count (dose: 100.0 mg/kg/injection, schedule: Q01DX009 (ip), vehicle: saline with Tween-80) was 4 of 6 and the survivor count [2] was 2 of 6.

`NC(N)=NC(N)=Nc1ccc([As](=O)(O)O)c(O)c1` was tested, and the T/C (dose: 100.0 mg/kg/injection, schedule: Q01DX009 (ip), vehicle: saline sonified) was 136 % of control.

For `Cc1ccc(C)c(C2(c3cc(C)ccc3C)CCCCCC2=O)c1`, the survivor count [6] was 6 of 6 and the survivor count [1] was 6 of 6.

With `CC(=O)OC(C(=O)O)N1C(=O)C2C3C=CC(C2C1=O)C1C2C(=O)N(C(OC(C)=O)C(=O)O)C(=O)C2C31` (centres undefined) the T/C [7] was 125 % of control, the T/C [8] was 142 % of control and the survivor count [8] was 3 of 6.

For `CC1OC(O[C@H]2C[C@](O)(C(C)O)Cc3c(O)c4c(c(O)c32)C(=O)c2c(O)cccc2C4=O)CC(NC=O)C1O` (some centres undefined), the T/C (dose: 0.65 mg/kg/injection, schedule: Q04DX003 (ip), vehicle: water) was 132 % of control, the T/C (dose: 1.29 mg/kg/injection, schedule: Q04DX003 (ip), vehicle: water) was 138 % of control and the T/C (dose: 2.58 mg/kg/injection, schedule: Q04DX003 (ip), vehicle: water) was 136 % of control. For the same molecule, the T/C (dose: 5.16 mg/kg/injection, schedule: Q04DX003 (ip), vehicle: water, evaluated on day 45) was 136 % of control [4 of 6 alive on day 9], the T/C (dose: 5.16 mg/kg/injection, schedule: Q04DX003 (ip), vehicle: water, evaluated on day 60) was 129 % of control and the T/C (dose: 10.32 mg/kg/injection, schedule: Q04DX003 (ip), vehicle: water) was 127 % of control.

In the case of `CC(=O)SCC[n+]1cc2ccccc2c2ccccc21`, the survivor count [9] is reported as 4 of 5 and the survivor count [1] is reported as 0 of 5.

With `NC(=O)C1C2CCC(O2)C1C(=O)O` (centres undefined) the survivor count (dose: 6.25 mg/kg/injection, schedule: Q01DX005 (ip), vehicle: Klucel (hydroxypropylcellulose) (HPC)) was 1 of 6, the survivor count (dose: 12.5 mg/kg/injection, schedule: Q01DX005 (ip), vehicle: Klucel (hydroxypropylcellulose) (HPC)) was 0 of 6 and the survivor count (dose: 25.0 mg/kg/injection, schedule: Q01DX005 (ip), vehicle: Klucel (hydroxypropylcellulose) (HPC)) was 0 of 6. The survivor count [6] was 0 of 6, the survivor count [9] was 0 of 6 and the survivor count [1] was 0 of 6.

`C=CC1CCC[S+]1CC(=O)OCC` (centres undefined) was tested, and the survivor count (dose: 100.0 mg/kg/injection, schedule: Q01DX005 (ip), vehicle: saline with Tween-80) was 1 of 6 and the survivor count [5] was 0 of 6.

In the case of `COc1cc2c(cc1OC)C(C#N)N(C(=O)c1ccccc1)C=C2` (centres undefined), the survivor count (dose: 1.56 mg/kg/injection, schedule: Q01DX009 (ip), vehicle: water) is reported as 6 of 6, the survivor count (dose: 3.13 mg/kg/injection, schedule: Q01DX009 (ip), vehicle: water) is reported as 6 of 6 and the survivor count (dose: 6.25 mg/kg/injection, schedule: Q01DX009 (ip), vehicle: water) is reported as 6 of 6. For the same molecule, the survivor count (dose: 12.5 mg/kg/injection, schedule: Q01DX009 (ip), vehicle: water) was 6 of 6, the survivor count (dose: 25.0 mg/kg/injection, schedule: Q01DX009 (ip), vehicle: water) was 6 of 6 and the survivor count (dose: 50.0 mg/kg/injection, schedule: Q01DX009 (ip), vehicle: water) was 6 of 6. For the same molecule, the survivor count (dose: 100.0 mg/kg/injection, schedule: Q01DX009 (ip), vehicle: water) was 6 of 6, the survivor count [7] was 6 of 6 and the survivor count [8] was 6 of 6.

`O=C(O)CC(=O)O.[NH-]C1CCCC([NH-])C1.[Pt+2]` (centres undefined) was tested, and the T/C (dose: 6.25 mg/kg/injection, schedule: Q04DX002 (ip), vehicle: saline with Tween-80) was 147 % of control.

For `CCCCOC(=O)c1[nH]cnc1/N=N\N(C)C`, the T/C (dose: 50.0 mg/kg/injection, schedule: Q01DX009 (ip), vehicle: saline with Tween-80) was 145 % of control, the T/C (dose: 200.0 mg/kg/injection, schedule: Q04DX003 (ip), vehicle: saline with Tween-80, evaluated on day 20) was 141 % of control and the T/C (dose: 200.0 mg/kg/injection, schedule: Q04DX003 (ip), vehicle: saline with Tween-80, evaluated on day 30) was 131 % of control.

For `CC1OC(OC2C(OC3C(OC4CCC5(C)C(CCC6(C)C5CC=C5C7CC(C)(C)CCC7(C(=O)O)CCC56C)C4(C)C)OCC(O)C3O)OC(CO)C(O)C2O)C(O)C(O)C1O` (centres undefined), the survivor count (dose: 15.0 mg/kg/injection, schedule: Q01DX005 (ip), vehicle: distilled water + Tween-80) was 0 of 6, the survivor count (dose: 30.0 mg/kg/injection, schedule: Q01DX005 (ip), vehicle: distilled water + Tween-80) was 0 of 6 and the survivor count (dose: 60.0 mg/kg/injection, schedule: Q01DX005 (ip), vehicle: distilled water + Tween-80) was 0 of 6. For the same molecule, the survivor count (dose: 120.0 mg/kg/injection, schedule: Q01DX005 (ip), vehicle: distilled water + Tween-80) was 0 of 6 and the survivor count (dose: 240.0 mg/kg/injection, schedule: Q01DX005 (ip), vehicle: distilled water + Tween-80) was 0 of 6.

In the case of `NC(=S)N/N=C/c1nc2ccccn2c1[N+](=O)[O-]`, the survivor count [3] is reported as 6 of 6 and the survivor count [4] is reported as 6 of 6.

For `Nc1nc(SCc2ccccc2Cl)c2[nH]cnc2n1`, the survivor count [2] was 5 of 6 and the survivor count (dose: 400.0 mg/kg/injection, schedule: Q04DX003 (ip), vehicle: saline with Tween-80) was 5 of 6.

With `Cc1c(Cl)cccc1NC(=O)Nc1nccs1` the survivor count [4] was 1 of 6.
